Measurements from PubChem BioAssay AID1347426 (Functional Genomics Laboratory (NCATS/FGL), 2020).
About 1,400 (4.5%) of roughly 31,000 sequences were called active.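 Rule for the calls: active = median seed-adjusted z-score above 1 or below -1; inactive = the rest.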 This is one part of the list.

Assay: Novel Modifiers of Survival Motor Neuron (SMN) Protein: Gene Identification via Genome-wide siRNA Screen;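 note: luminescence tracks full-length SMN protein made from the SMN2 reporter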
Conditions: HEK293T SMN2-luciferase reporter, siRNA knockdown, 72 h; actives lie on both sides
Outline: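 siRNA screen, 10418 genes ×3 siRNAs; 1 pmol/well, lipid reverse transfection into HEK293T SMN2-luc reporter line. 72 h, 37 °C, 5% CO2; ONE-Glo readout. Data: neg-ctrl normalized, log10, MAD; hit = MAD >1.0 or < -1.0.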

Sequence	median seed-adjusted z-score
CCCUUGGUGUGGUACUUCATT against CYP20A1	inactive: -0.796
AAAGAGCUCCGAGCCUUUATT against PRICKLE3	inactive: 0.0332
GGAAAAUACUAUACCCUCATT against ACADVL	inactive: -0.476
GAACAUCAUCUGUAGUUCATT against HCRTR2	inactive: -0.236
AAAUCGACGUGGUCACUGUTT against MYCN	inactive: 0.00242
GCCUGAGACCAAAAACAGATT against SLC2A9	inactive: 0.216
GCUUUGGUGUGUUUGCAGATT against NTHL1	inactive: 0.364
CAUCGUCUCUGCUGACAAATT against TUBAL3	active: 1.05
GCUUCGUGGUGGACUCAAATT against MYH3	inactive: -0.113
GAAUCAUCCCUUUAGAGAATT against CYTH1	inactive: 0.348
GGACAAAGCUAAUUGAUCUTT against EBP	inactive: 0.017
GGAAGAACAUGACAACCAATT against IFIT1	inactive: -0.489
AGGUUUUAACGAUUUGUUUTT against MAZ	inactive: 0.316
CCAAGAAGAUCAGCACCUUTT against GPR26	active: -1.33
GACUUACACUCAACCCUCATT against FUK	inactive: -0.0381
UCAUCUCGCUGGUAACUCATT against EXOSC2	inactive: -0.0798
GGCUGGAUCUUACAAGUGUTT against DKFZP586H2123	inactive: -0.38
CCUCAACAGUCACGUCAGATT against MAZ	inactive: 0.316
GUUUGACAUCGUCAAGAAATT against ARFIP2	inactive: 0.748
CCUAUGAUAUGGUUCCAGATT against COX5A	inactive: -0.348
CCAUUUCGAUGCAACGUGUTT against ZNF235	inactive: 0.348
GGCAUAUAUCAAUCGCCUATT against ENTPD7	inactive: 0.368

Sequence	median seed-adjusted z-score
GAGUUCGAGAGAUCCAAGATT against UQCRQ	inactive: 0.0241
CCUCGGAAGAGAUCACUAUTT against POU2F1	inactive: 0.317
CAGAAUAUAUGACAGGAAATT against YY1	active: 1.94
CACUGUGAAUCGUCGCUAUTT against SNX19	inactive: 0.67
GCAAGCGAGUCAACACCAATT against DRD2	inactive: -0.0273
GUAGGAAUGCUAACAAUUATT against PRKAG2	inactive: -0.367
CCGUCAAGGUGUAUUUUGATT against PPIB	inactive: 0.038
GUAUCUAGUGAGACAAUUATT against GABRA6	inactive: 0.466
CCAUUAAAGAAAAGGGUAATT against CA13	inactive: -0.212
GGAAUUGCCGUGUGCAACATT against CTBP2	inactive: -0.241
GGAUCAAGGCGGAGAGGAATT against JUN	inactive: 0.381
CUCCACUGCUUUUCCAAGATT against DBX2	inactive: 0.244
AGUACAUCCCUGGAACAAATT against CYCS	inactive: -0.679
CAGUGAAGGUGAAAUUCGATT against UCHL5	inactive: -0.358
GCAGCUUCGAGAUGCUGUATT against GMEB2	inactive: -0.669
CGCAAAGCUUUGACAAAGATT against COX4I1	inactive: -0.39
GAGUGAUCCUGGAUAUACATT against FUT8	inactive: 0.464
UGAAGAAAGUGCACGAAGATT against NEFL	inactive: 0.305
GGACUUCGACUGCAAUACUTT against GJB5	inactive: 0.338
CCGUCUACCUCUUCAGCUUTT against SLC16A3	inactive: -0.353
ACGCGUUUGUAGCAACUGATT against DHX58	inactive: -0.302
CCAACAAUGUGGGACACCATT against PARP14	inactive: -0.289

Sequence	median seed-adjusted z-score
GCAAUUUGUCCGUCAACUATT against SELPLG	inactive: 0.0378
GGAUCCAUAUAAACAGGGATT against FGB	inactive: 0.481
CCAGAUAUGGUAUCCCAAUTT against ZNF227	inactive: 0.0194
GUCUCAGCGUACUUAAGAATT against RPP25	inactive: 0
CGACCAUGAUUCAGACCUATT against PDPR	inactive: -0.0653
GACAGUUUCCCUACAAGAATT against MAP2K7	inactive: -0.772
CUGGAAUCAUUAUAAGGAUTT against RAMP2	inactive: 0.289
AGAGCUUCCCUUCUACAGATT against UTS2	inactive: 0.0487
GCAUCGAGAUCGCGACCUATT against GSX1	inactive: 0.677
GAACGAUCGUGACUUGAUATT against LCTL	inactive: -0.0821
UGGUGUCGCUGGAGAAGUATT against GPX7	inactive: -0.971
AGAUCGCACUCAUCAUCUUTT against MEF2D	inactive: 0.0021
GCUGAAUCGUCAGAACCAATT against MPO	inactive: -0.223
AGAUCGAAAAUCAAGUUCATT against OVOL2	inactive: 0.654
AGACGAGUGUAAUGUGGUATT against NPM3	inactive: 0.0417
GUAUGGAAAUUUCAUCGAUTT against GTPBP10	inactive: 0
GAAGAGUACUCUCAGUAUATT against ZNF615	inactive: 0.0912
CCAGGUUUUCAAUCAGAUUTT against SERPINE2	inactive: 0.0144
CAGAUGCUCUGAACCCUGATT against CASP10	inactive: -0.0372
GGCUAUAUGUUACCCUUGUTT against SVOPL	inactive: 0.439
GGACCUUGUUCAGAACACUTT against HPCAL4	inactive: 0.282
CCGCGCAGUUCAUCUCAAATT against SNX15	inactive: -0.152

Rewritten with bars between the fields: part of the list above.
Sequence | median seed-adjusted z-score
GACUUACACUCAACCCUCATT against FUK | inactive: -0.0381
UCAUCUCGCUGGUAACUCATT against EXOSC2 | inactive: -0.0798
GGCUGGAUCUUACAAGUGUTT against DKFZP586H2123 | inactive: -0.38
CCUCAACAGUCACGUCAGATT against MAZ | inactive: 0.316
GUUUGACAUCGUCAAGAAATT against ARFIP2 | inactive: 0.748
CCUAUGAUAUGGUUCCAGATT against COX5A | inactive: -0.348
CCAUUUCGAUGCAACGUGUTT against ZNF235 | inactive: 0.348
GGCAUAUAUCAAUCGCCUATT against ENTPD7 | inactive: 0.368
GAGUUCGAGAGAUCCAAGATT against UQCRQ | inactive: 0.0241
CCUCGGAAGAGAUCACUAUTT against POU2F1 | inactive: 0.317
CAGAAUAUAUGACAGGAAATT against YY1 | active: 1.94
CACUGUGAAUCGUCGCUAUTT against SNX19 | inactive: 0.67
GCAAGCGAGUCAACACCAATT against DRD2 | inactive: -0.0273
GUAGGAAUGCUAACAAUUATT against PRKAG2 | inactive: -0.367
CCGUCAAGGUGUAUUUUGATT against PPIB | inactive: 0.038
GUAUCUAGUGAGACAAUUATT against GABRA6 | inactive: 0.466
CCAUUAAAGAAAAGGGUAATT against CA13 | inactive: -0.212
GGAAUUGCCGUGUGCAACATT against CTBP2 | inactive: -0.241
GGAUCAAGGCGGAGAGGAATT against JUN | inactive: 0.381
CUCCACUGCUUUUCCAAGATT against DBX2 | inactive: 0.244
AGUACAUCCCUGGAACAAATT against CYCS | inactive: -0.679
CAGUGAAGGUGAAAUUCGATT against UCHL5 | inactive: -0.358
GCAGCUUCGAGAUGCUGUATT against GMEB2 | inactive: -0.669
CGCAAAGCUUUGACAAAGATT against COX4I1 | inactive: -0.39
GAGUGAUCCUGGAUAUACATT against FUT8 | inactive: 0.464
UGAAGAAAGUGCACGAAGATT against NEFL | inactive: 0.305
GGACUUCGACUGCAAUACUTT against GJB5 | inactive: 0.338

Continuation.

Sequence	median seed-adjusted z-score
GCGCAUUACUUUCUAGAAATT against PEX5L	inactive: 0.0982
GCUCCUAUGUAUUAGAUCATT against SERPINA4	inactive: 0.419
GAGAGAAGGUGAUACGCUATT against PAPPA2	inactive: -0.173
CUCCCAAUGAGGUUGUUAATT against ZBTB2	inactive: 0.217
GUGUACUCUUUUUAUGAAATT against ZNF430	inactive: 0.681
GGUGUUCCACGAGUUCUUUTT against DNAJB13	inactive: 0.092
GGACAUCCUGUCAUAGAAATT against UTP3	active: -1.08
CCUCUCCCAUGAGCACCAATT against NUDT2	inactive: 0.891
GGGCUCUAAUGAGACUAGATT against LRPPRC	inactive: -0.373
CCAAAUCGCUCAAUAAGGATT against KATNAL2	inactive: -0.85
GGACUGUGAACGAAGGUUUTT against WT1	inactive: 0.236
GAAGAUUGCUAAUGACAAUTT against GOT1	inactive: 0.0103
CAGUGGAUGUGACAGUUCATT against CUTC	inactive: -0.377
GCGAUCUCUUCGAUGCUUATT against E2F3	inactive: -0.215
GGAUGGUGCAGACUGUUCATT against CLDN18	inactive: 0.000299
CAUCCAAUGUCCCAAGGAATT against CCL8	inactive: 0.436
AGAGCUUCAUGGGAGGGAATT against BPIL3	inactive: -0.0506
CCACCUACUGUAACCAAAUTT against RNASE1	inactive: 0.085
GAGUGAUCCUUUCCUACAATT against GCLC	inactive: -0.21
GGGUAGAAAAGACCAAGAUTT against ADRB3	inactive: 0.17
GGUCUCUAAUGAUAAGAAATT against PCDHB11	inactive: -0.257
UGGGAGGCCUUAUCCUCAATT against FXYD4	inactive: -0.0447

Sequence	median seed-adjusted z-score
GGCUCGAGCUGGAAUCAUUTT against NPEPPS	inactive: 0
GACCUUCACCGUUACGUUATT against HDLBP	active: -1.18
CAAAGGACAGUAUUAUCUATT against RG9MTD1	inactive: -0.375
ACAUGGUUAUUCCCAGUGATT against AKR1CL2	inactive: -0.949
GAAGAUUACUGACCUGCGATT against RARA	inactive: -0.0195
GCACCGUUUUAGUGAGAAUTT against PCDHA6	inactive: 0.419
CAACCGCAAAGUGAACAUUTT against AIFM3	inactive: -0.727
GGACUGUCCUGGUACCUGATT against CYP27B1	inactive: -0.149
CAGUAACGCGGACAAUGAATT against RHBG	inactive: -0.126
CGUCUUUCCAGAAUUCAAATT against HGS	active: 1.16
GUAAGGCUGCUAAUCUGUATT against ADHFE1	inactive: 0.418
GCAACAUGCAUGAAGCCGATT against GFAP	inactive: -0.312
CAGAUGUACGAGCUCUUUATT against PPP5C	inactive: 0.473
CAAAGGCAGUCUCAGCAUUTT against SYT12	inactive: -0.329
CAAGUCAGGUUUCAUGUAATT against IRAK1	inactive: -0.232
CGUGUCACCGCGACAAAAATT against RARG	inactive: -0.0492
AGGUGAUGUCGGUCGGAGATT against RAB24	inactive: 0.123
CCUCUGCAAUUGUGCCCUUTT against ELF3	inactive: 0.43
CCAACUCCAUGUACAUCGATT against LCP2	inactive: -0.826
